No constants are given. Whether binding was seen depends on the method and setting. Binding seen in cells or lysates may run through a third protein. Here binding means that the protein was enriched with, or labelled near, the bait; the list need not be complete.
Target: DBF-2-GFP (N. crassa) (UniProt Q7SFS8)
Experiment: affinity purification with mass spectrometry; GFP-trap precipitation of GFP-fusion baits from N. crassa cell extracts, mass spectrometry; two independent biological replicates; control purifications from GFP-expressing cells

Chains of the proteins cited; added tags and fusions are not shown. Lines headed by an entry give the natural chain unless they say otherwise; changes in a name come on top.
UniProt Q7SFS8: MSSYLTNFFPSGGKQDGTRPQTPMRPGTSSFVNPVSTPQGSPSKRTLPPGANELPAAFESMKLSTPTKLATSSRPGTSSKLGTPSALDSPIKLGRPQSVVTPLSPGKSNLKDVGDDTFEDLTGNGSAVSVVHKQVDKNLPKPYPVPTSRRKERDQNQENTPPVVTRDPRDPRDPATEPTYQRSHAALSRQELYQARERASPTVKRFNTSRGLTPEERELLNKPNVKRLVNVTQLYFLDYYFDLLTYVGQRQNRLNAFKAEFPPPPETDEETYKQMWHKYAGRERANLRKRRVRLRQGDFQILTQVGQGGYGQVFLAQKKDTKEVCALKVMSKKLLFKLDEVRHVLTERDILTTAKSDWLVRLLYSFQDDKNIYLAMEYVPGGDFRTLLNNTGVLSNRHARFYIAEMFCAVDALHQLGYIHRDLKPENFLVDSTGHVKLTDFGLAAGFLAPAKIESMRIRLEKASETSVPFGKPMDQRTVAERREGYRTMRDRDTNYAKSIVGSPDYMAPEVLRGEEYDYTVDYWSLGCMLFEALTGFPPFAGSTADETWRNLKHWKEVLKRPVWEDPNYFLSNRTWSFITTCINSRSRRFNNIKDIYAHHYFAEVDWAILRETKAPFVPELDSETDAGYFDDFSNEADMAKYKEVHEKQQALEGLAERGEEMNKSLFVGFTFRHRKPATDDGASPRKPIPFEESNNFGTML
UniProt Q7S789: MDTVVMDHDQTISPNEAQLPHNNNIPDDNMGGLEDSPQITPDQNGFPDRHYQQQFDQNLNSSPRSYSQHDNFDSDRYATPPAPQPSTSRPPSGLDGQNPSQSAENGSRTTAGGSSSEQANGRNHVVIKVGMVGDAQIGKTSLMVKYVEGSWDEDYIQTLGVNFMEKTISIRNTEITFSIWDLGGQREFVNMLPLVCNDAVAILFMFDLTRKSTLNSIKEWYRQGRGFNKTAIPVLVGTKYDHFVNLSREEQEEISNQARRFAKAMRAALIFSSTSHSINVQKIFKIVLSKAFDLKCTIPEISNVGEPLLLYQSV

## SPG-1/NCU08878 (from UniProt Q7S789)
  binding: binds
